Test results reported in the M2OR odorant receptor database.
The list shows a part of the results, in another mix than the full data. Calls are pooled over several reports, among them a noisy single-well screen. The list shows a part of the results.

What was measured:
Details in all cases: stereoisomer not certain
UniProt Q8VGT4 = target: T1, UniProt Q8VGT4
T1 sequence (whole entry): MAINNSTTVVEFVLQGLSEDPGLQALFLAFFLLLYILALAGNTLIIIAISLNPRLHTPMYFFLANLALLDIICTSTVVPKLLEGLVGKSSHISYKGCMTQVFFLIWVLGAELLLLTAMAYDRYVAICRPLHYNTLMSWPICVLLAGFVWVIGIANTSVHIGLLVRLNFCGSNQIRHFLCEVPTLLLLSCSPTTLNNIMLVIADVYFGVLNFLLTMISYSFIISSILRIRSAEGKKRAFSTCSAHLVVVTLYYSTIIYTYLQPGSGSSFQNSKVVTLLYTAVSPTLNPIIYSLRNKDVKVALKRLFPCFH
Procedure, shortened: (§1)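 Each receptor–molecule pair is labelled responsive or non-responsive (inactive) according to whether the original authors judged the measured signal statistically different from baseline. The data were taken from the main text and supplementary material of published papers and checked for typos and inconsistencies. Assay methods differed by source, with transient luciferase assays in mammalian cell lines being common.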

UniProt Q8VGU3 = target: T2, UniProt Q8VGU3
T2 sequence (whole entry): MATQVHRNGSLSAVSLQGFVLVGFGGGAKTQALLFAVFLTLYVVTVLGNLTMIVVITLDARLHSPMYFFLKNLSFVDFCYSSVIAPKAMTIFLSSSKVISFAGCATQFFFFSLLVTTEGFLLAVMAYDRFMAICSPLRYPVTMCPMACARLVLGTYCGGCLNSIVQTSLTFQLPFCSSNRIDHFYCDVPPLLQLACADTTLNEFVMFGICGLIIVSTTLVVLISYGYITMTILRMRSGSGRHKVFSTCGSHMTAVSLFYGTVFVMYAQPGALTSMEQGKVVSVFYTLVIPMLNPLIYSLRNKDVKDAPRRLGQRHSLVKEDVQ
Procedure, shortened: as §1

UniProt Q8VGV1 = target: T3, UniProt Q8VGV1
T3 sequence (whole entry): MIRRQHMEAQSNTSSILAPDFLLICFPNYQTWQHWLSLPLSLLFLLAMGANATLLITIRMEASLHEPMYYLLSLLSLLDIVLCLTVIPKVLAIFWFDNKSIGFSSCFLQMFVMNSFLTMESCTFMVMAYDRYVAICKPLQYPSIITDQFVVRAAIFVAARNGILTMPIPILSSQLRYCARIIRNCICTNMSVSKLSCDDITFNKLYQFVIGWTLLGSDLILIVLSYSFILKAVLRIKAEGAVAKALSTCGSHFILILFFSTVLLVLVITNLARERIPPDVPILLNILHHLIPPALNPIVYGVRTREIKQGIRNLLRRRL
Procedure, shortened: as §1

UniProt Q8VGV7 = target: T4, UniProt Q8VGV7
T4 sequence (whole entry): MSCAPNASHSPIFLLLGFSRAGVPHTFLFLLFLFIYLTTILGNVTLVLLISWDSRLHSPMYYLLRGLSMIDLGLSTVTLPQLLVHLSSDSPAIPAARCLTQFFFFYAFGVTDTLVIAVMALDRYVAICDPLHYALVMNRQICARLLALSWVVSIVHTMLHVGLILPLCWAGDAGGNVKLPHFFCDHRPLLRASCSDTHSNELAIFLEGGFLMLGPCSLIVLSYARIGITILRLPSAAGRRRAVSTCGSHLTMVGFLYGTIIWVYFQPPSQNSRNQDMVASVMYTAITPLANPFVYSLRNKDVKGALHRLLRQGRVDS
Procedure, shortened: as §1

UniProt Q8VGX3 = target: T5, UniProt Q8VGX3
T5 sequence (whole entry): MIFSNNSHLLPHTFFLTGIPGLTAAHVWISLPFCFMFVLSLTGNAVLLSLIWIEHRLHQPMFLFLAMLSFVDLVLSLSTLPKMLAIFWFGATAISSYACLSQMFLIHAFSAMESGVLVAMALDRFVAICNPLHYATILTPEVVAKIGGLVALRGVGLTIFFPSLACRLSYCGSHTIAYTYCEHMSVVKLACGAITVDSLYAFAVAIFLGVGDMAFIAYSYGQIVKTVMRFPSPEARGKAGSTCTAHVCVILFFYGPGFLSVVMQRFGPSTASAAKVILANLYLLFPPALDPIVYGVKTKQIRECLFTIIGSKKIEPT
Procedure, shortened: as §1

UniProt Q8VGX5 = target: T6, UniProt Q8VGX5
T6 sequence (whole entry): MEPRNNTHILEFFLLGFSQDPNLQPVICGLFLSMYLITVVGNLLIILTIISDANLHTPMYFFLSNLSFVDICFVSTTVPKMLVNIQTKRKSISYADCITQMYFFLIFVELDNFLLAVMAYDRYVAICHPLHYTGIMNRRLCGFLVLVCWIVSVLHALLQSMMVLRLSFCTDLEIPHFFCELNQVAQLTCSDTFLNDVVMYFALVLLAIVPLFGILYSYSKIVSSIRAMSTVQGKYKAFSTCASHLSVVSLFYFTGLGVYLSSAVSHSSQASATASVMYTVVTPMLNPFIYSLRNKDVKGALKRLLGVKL
Procedure, shortened: as §1

UniProt Q8VGX8 = target: T7, UniProt Q8VGX8
T7 sequence (whole entry): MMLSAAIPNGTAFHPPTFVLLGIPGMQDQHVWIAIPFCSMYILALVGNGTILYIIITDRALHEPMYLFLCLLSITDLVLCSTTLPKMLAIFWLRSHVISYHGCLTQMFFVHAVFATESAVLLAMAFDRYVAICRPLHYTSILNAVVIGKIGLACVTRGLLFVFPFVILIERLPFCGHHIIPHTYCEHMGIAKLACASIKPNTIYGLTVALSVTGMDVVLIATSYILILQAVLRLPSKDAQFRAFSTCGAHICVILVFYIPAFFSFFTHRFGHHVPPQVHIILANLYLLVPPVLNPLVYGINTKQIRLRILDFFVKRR
Procedure, shortened: as §1

UniProt Q8VGY6 = target: T8, UniProt Q8VGY6
T8 sequence (whole entry): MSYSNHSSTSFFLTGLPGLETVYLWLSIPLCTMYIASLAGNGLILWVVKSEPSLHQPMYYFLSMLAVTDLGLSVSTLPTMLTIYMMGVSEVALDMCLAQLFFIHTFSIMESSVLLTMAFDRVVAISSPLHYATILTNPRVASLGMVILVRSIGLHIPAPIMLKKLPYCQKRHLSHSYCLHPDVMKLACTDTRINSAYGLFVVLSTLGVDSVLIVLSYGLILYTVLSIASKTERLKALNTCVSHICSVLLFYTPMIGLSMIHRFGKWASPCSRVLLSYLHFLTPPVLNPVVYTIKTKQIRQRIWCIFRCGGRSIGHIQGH
Procedure, shortened: as §1

UniProt Q8VGZ2 = target: T9, UniProt Q8VGZ2
T9 sequence (whole entry): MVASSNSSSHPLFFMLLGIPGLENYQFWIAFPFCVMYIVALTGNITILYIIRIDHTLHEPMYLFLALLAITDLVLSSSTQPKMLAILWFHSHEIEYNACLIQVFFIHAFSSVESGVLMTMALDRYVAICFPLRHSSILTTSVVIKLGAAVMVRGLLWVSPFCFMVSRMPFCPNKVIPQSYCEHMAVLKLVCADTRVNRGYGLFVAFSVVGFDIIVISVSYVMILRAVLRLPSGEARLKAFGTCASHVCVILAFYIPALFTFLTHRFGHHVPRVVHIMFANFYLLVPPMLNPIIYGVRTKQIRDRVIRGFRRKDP
Procedure, shortened: as §1

UniProt Q8VGZ7 = target: T10, UniProt Q8VGZ7
T10 sequence (whole entry): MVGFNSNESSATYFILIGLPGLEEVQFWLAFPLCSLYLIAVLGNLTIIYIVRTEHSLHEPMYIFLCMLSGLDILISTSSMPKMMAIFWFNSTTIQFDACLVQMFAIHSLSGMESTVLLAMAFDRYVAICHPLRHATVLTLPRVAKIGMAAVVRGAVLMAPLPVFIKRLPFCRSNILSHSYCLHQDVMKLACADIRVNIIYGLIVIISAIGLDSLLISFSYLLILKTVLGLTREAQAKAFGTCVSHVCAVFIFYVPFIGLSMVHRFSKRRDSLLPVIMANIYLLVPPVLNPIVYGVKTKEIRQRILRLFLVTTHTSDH
Procedure, shortened: as §1

UniProt Q8VH10 = target: T11, UniProt Q8VH10
T11 sequence (whole entry): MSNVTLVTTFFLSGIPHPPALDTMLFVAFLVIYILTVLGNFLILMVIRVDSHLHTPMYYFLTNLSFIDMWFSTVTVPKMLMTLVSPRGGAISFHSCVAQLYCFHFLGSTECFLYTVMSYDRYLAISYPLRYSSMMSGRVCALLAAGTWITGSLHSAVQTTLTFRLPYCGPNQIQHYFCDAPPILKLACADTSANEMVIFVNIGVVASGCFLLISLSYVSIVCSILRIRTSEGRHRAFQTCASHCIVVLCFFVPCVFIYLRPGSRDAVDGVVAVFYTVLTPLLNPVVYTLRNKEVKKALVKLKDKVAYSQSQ
Procedure, shortened: as §1

UniProt Q8VH16 = target: T12, UniProt Q8VH16
T12 sequence (whole entry): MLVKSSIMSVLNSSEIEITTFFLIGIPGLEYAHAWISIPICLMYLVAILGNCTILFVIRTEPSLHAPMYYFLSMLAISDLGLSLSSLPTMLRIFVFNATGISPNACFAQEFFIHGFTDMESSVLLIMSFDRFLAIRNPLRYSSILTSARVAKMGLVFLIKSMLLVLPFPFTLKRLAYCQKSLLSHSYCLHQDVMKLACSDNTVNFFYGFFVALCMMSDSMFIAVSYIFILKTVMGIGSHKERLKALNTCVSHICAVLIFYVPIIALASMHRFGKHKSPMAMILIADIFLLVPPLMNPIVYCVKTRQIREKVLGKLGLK
Procedure, shortened: as §1

UniProt Q8VH20 = target: T13, UniProt Q8VH20
T13 sequence (whole entry): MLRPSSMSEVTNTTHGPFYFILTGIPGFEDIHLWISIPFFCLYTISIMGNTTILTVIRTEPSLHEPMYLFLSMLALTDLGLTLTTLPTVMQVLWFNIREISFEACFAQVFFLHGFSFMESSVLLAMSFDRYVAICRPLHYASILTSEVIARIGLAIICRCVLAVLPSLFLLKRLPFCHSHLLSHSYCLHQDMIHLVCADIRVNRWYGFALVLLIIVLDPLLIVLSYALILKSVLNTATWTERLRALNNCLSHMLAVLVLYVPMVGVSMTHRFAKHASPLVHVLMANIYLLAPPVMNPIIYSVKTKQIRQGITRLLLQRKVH
Procedure, shortened: as §1

UniProt Q8VH21 = target: T14, UniProt Q8VH21
T14 sequence (whole entry): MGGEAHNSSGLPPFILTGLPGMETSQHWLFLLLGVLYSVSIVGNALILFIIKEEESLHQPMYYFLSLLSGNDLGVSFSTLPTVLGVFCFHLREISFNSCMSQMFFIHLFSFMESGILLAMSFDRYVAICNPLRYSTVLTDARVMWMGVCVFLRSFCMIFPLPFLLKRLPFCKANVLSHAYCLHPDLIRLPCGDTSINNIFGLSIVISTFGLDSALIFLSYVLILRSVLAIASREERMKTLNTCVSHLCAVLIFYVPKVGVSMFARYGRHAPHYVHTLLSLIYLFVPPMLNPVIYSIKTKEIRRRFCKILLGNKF
Procedure, shortened: as §1

UniProt Q924H8 = target: T15, UniProt Q924H8
T15 sequence (whole entry): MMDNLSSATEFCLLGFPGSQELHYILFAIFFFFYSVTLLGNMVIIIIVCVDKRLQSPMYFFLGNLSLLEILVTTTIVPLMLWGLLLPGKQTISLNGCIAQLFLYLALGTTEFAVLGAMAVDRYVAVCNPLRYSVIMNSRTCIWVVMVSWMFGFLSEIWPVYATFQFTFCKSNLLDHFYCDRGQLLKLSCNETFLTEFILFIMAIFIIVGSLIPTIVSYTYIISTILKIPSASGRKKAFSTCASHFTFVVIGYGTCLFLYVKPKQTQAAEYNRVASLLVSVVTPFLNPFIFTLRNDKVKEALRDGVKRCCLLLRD
Procedure, shortened: as §1

Measured: odorant receptor agonist call;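 further: active if original authors judged signal statistically different from baseline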

CCCCCCCC=O
inactive: all assays above

CC(=O)C(C)=O
not listed: UniProt Q8VGT4 | UniProt Q8VGV1 | UniProt Q8VGX8 | UniProt Q8VGY6 | UniProt Q8VH10
inactive: all other assays above
